Source: PubChem BioAssay (NCATS)
This is one part of the list. Further columns of the screen follow, without active or inactive calls. Most of these compounds were active or inconclusive in the main read-out, so they are no random draw. Potencies come from curve fits of mixed quality, noted in brackets.

Assay: A High-Content qHTS Against Drug Library for the Identification of Small Molecules that Inhibit DYT1 Early Onset Primary Dystonia-Associated Cell Pathology (AID 1645839)
Conditions: HEK293 Flp-In EGFP-delE TorsinA, punctate imaging, 48 h; measured here: cell count cytotoxicity
Outline: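 Induced EGFP-delE TorsinA cells are imaged after 48 h of compound treatment. Punctate fusion-protein distribution gives the %pathology value, while nuclei counts flag toxicity. Wild-type EGFP-hTOR1A cells define the normal pattern.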

Compound | AC50
Cc1ccc(N)cc1O | 12.6 µM [falling, full curve]
CCN(CC)CCOc1ccccc1C(=O)CCc1ccccc1 | 20 µM [falling, partial curve, poor fit]
CC(=O)Oc1ccc2c(c1)CC[C@@H]1[C@@H]2CC[C@]2(C)[C@@H](O)CC[C@@H]12 | 10 µM [falling, partial curve, poor fit]
CCOc1cc(N)c(Cl)cc1C(=O)NCC1CN(Cc2ccc(F)cc2)CCO1 (stereo not given) | 1.58 µM [falling, full curve]
N=C1N=C(N)c2cc3ccccc3cc21 | 31.6 µM [falling, partial curve, poor fit]
COC(=O)Nc1nc2ccc(C(=O)C3CC3)cc2[nH]1 | 1.26 µM [falling, partial curve, poor fit]
Cc1cc(O)cc2c1O[C@](C)(CCC[C@H](C)CCC[C@H](C)CCCC(C)C)CC2 | 35.5 µM [rising, single point]
Cc1cc(OCCOCC[N+](C)(C)Cc2ccccc2)ccc1C(C)(C)CC(C)(C)C | 12.6 µM [falling, single point]
CCN(CC)CCOC(=O)C(c1ccccc1)C1CCCCC1 (stereo not given) | 20 µM [falling, single point]
C/C(=C(\CCOP(=O)(O)O)SC(=O)c1ccccc1)N(C=O)Cc1cnc(C)nc1N | 1.12 µM [falling, partial curve, poor fit]
COc1ccccc1OCC1CNC(=O)O1 (stereo not given) | 7.08 µM [falling, partial curve]
CCCCCC(C)N (stereo not given) | 8.91 µM [falling, single point]
Cc1cc(=O)oc2cc(O[C@@H]3SC[C@@H](O)[C@H](O)[C@H]3O)ccc12 | 3.16 µM [falling, full curve]
CC[C@H](c1ccc(O)cc1)[C@@H](CC)c1ccc(O)cc1 | 11.2 µM [falling, single point]
COC(=O)C1=C(C)NC(C)=C(C(=O)OCCc2ccc(N3CCN(C(c4ccccc4)c4ccccc4)CC3)cc2)C1c1cccc([N+](=O)[O-])c1 (stereo not given) | 35.5 µM [falling, single point]
CCOC(=O)C(=O)c1csc(NC=O)n1 | 12.6 µM [rising, single point]
CCOC(=O)OC(C)OC(=O)[C@@H]1N2C(=O)[C@@H](NC(=O)[C@H](N)c3ccccc3)[C@H]2SC1(C)C (stereo not given in full) | 10 µM [falling, partial curve, poor fit]
CCOC(=O)Cn1cccc1-c1nc(-c2ccc(OC)cc2)c(-c2ccc(OC)cc2)s1 | 0.501 µM [falling, full curve, poor fit]
CC1Cc2ccccc2N1NC(=O)c1ccc(Cl)c(S(N)(=O)=O)c1 (stereo not given) | 7.94 µM [falling, partial curve, poor fit]
CCc1oc2ccccc2c1C(=O)c1cc(I)c(O)c(I)c1 | 22.4 µM [falling, single point]

Part of the list above in a different format:
Compound	AC50
Cc1ccc(N)cc1O	12.6 µM [falling, full curve]
CCOc1cc(N)c(Cl)cc1C(=O)NCC1CN(Cc2ccc(F)cc2)CCO1 (stereo not given)	1.58 µM [falling, full curve]
CCOC(=O)C(=O)c1csc(NC=O)n1	12.6 µM [rising, single point]

(more compounds)

Compound | AC50
CCC(CN)=C(c1ccccc1)c1ccccc1 | 7.08 µM [falling, partial curve, poor fit]
CC[C@@H]([C@H](C)O)n1ncn(-c2ccc(N3CCN(c4ccc(OC[C@@H]5CO[C@@](Cn6cncn6)(c6ccc(F)cc6F)C5)cc4)CC3)cc2)c1=O | 6.31 µM [falling, single point]
CCCCOCCOC(=O)c1cccnc1 | 31.6 µM [rising, single point]
O=C(O)c1ccc[n+]([O-])c1 | 22.4 µM [rising, partial curve, poor fit]
O=C(OCc1ccccc1)c1ccccc1 | 15.8 µM [rising, single point]
CN(C)CCOC(c1ccccc1)c1ccc(Br)cc1 (stereo not given) | 8.91 µM [falling, partial curve, poor fit]
NS(=O)(=O)c1cc2c(cc1C(F)(F)F)NCNS2(=O)=O | 5.62 µM [rising, single point]
C[N+](C)(CCOc1ccccc1)Cc1cccs1 | 12.6 µM [rising, partial curve, poor fit]
CC(=O)OC[C@H]1O[C@@H](OC(C)=O)[C@H](OC(C)=O)[C@@H]1OC(C)=O | 4.47 µM [rising, partial curve]
O=C(O)Cn1cnnn1 | 31.6 µM [rising, single point]
O=C(O)CNC(=O)CNC(=O)CNC(=O)CSC(=O)c1ccccc1 | 31.6 µM [rising, single point]
CC(COc1ccccc1)NC(C)C(O)c1ccc(O)cc1 (stereo not given) | 10 µM [falling, partial curve, poor fit]
C/C(=C(/OCCOc1ccc(Cl)cc1)c1ccc(Cl)cc1Cl)n1ccnc1 | 31.6 µM [falling, single point]
CN(C)CC/C=C1\c2ccccc2Sc2ccc(Cl)cc21 | 10 µM [falling, partial curve, poor fit]
CN(CCCN1c2ccccc2CCc2ccccc21)CC(=O)c1ccc(Cl)cc1 | 7.94 µM [falling, partial curve, poor fit]
Cc1ncc(CO)c(CO)c1O | 5.01 µM [rising, full curve, poor fit]
OC(C#CCN1CCCC1)(c1ccccc1)c1ccccc1 | 20 µM [falling, partial curve, poor fit]
CCCCCCCCCCCCCCCCOP(=O)([O-])OCC[N+](C)(C)C | 8.91 µM [falling, partial curve]
COC(=O)C1=C(C)NC(COC(N)=O)=C(C(=O)OC(C)C)C1c1cccc(Cl)c1Cl (stereo not given) | 28.2 µM [falling, single point]
COc1ccc(-c2cc(=O)c3c(O)cc(O[C@@H]4O[C@H](CO[C@@H]5O[C@@H](C)[C@H](O)[C@@H](O)[C@H]5O)[C@@H](O)[C@H](O)[C@H]4O)cc3o2)cc1O | 11.2 µM [falling, single point]
